Assay results: the supplement of paper PMC12823440, “Inhibitors supercharge kinase turnover through native proteolytic circuits” (Nature, 2025)
Some of the results follow. Hit calls seldom repeat between salt and free forms of one compound.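 Kinases, fused to nanoluciferase, were expressed in K562 cells; luminescence was measured every 4 h from 2 to 18 h as percent of control (DMSO = 100%, positive control = 0%). A time point is decreased if signal falls significantly (2 sigma). Hits were called by the authors by a rule that is not shown; the count of time points alone does not decide it.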

Protein sequences, listed by entry. Tags and fused reporters are not part of them. Lines headed by an entry give the natural chain unless they say otherwise; changes in a name come on top.
UniProt Q16288, whole entry, looked up: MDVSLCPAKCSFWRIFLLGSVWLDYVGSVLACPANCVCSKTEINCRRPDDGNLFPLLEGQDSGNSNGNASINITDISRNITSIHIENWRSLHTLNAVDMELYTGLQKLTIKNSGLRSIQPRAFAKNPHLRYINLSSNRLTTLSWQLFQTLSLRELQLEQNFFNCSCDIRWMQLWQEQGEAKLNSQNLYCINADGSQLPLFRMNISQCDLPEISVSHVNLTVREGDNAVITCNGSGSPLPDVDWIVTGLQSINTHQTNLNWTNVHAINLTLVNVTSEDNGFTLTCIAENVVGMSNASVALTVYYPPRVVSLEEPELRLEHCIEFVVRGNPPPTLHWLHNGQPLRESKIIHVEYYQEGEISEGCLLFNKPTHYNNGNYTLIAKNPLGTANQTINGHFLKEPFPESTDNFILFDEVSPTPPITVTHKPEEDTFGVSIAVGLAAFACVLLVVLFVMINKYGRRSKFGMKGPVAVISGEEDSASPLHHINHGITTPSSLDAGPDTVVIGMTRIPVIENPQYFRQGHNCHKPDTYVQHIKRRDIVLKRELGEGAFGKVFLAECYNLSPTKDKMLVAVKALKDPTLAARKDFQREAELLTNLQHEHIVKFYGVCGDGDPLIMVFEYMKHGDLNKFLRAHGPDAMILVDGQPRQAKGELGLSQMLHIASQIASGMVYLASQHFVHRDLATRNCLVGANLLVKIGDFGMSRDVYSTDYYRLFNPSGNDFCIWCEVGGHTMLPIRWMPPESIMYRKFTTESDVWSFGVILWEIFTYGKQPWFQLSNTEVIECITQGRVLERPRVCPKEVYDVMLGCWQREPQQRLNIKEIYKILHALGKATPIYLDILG
UniProt O96013: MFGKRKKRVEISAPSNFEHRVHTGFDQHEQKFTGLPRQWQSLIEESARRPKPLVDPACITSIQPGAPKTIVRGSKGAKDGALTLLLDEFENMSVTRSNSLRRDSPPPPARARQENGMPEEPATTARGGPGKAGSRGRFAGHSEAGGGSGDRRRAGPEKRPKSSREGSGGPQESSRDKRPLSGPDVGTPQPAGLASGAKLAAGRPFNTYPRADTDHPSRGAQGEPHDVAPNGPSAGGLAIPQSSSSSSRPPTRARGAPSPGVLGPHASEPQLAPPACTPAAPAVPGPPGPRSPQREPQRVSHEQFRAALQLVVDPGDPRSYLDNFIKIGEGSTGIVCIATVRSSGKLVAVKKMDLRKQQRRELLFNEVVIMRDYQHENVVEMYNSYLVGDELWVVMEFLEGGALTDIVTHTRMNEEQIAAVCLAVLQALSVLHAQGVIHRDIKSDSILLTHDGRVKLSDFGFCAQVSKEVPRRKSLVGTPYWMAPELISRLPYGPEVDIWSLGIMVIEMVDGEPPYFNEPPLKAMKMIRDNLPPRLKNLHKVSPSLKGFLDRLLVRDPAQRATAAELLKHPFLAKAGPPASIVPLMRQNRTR
UniProt Q96KB5: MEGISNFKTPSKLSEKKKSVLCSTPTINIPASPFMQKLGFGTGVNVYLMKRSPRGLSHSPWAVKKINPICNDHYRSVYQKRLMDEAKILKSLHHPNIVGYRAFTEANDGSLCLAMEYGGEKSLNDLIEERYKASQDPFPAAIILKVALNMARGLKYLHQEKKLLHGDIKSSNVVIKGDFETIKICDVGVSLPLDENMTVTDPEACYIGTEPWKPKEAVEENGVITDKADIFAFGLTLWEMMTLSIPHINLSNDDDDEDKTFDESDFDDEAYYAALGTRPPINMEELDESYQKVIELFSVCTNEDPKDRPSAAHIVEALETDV
UniProt P09619, whole entry: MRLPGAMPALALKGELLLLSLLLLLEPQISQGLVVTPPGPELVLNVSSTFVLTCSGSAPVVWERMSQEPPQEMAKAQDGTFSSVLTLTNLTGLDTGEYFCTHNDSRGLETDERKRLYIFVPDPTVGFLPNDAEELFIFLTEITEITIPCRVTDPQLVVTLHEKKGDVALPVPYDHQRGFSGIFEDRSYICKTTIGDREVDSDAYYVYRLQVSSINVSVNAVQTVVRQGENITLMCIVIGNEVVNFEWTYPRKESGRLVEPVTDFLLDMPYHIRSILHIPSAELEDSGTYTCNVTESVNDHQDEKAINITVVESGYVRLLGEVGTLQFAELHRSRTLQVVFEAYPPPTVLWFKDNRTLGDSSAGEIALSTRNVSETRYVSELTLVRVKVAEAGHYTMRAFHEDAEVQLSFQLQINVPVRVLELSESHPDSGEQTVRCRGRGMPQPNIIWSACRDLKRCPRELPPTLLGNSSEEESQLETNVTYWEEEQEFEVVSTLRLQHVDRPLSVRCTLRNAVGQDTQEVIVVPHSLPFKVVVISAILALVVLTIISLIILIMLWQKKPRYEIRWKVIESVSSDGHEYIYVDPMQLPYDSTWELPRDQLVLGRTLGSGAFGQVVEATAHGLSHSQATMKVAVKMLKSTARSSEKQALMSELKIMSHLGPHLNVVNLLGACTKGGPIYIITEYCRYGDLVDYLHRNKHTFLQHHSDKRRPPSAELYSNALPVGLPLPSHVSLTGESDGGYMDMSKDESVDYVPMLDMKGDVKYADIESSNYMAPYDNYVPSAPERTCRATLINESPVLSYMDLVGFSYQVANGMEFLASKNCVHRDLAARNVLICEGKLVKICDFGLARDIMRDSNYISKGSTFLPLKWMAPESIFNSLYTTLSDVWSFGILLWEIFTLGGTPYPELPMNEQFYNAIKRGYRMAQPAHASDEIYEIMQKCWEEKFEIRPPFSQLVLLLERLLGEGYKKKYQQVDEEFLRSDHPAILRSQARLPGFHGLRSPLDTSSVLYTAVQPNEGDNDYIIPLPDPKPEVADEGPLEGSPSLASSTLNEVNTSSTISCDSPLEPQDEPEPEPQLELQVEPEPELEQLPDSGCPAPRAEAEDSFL
UniProt Q15118, whole entry, looked up: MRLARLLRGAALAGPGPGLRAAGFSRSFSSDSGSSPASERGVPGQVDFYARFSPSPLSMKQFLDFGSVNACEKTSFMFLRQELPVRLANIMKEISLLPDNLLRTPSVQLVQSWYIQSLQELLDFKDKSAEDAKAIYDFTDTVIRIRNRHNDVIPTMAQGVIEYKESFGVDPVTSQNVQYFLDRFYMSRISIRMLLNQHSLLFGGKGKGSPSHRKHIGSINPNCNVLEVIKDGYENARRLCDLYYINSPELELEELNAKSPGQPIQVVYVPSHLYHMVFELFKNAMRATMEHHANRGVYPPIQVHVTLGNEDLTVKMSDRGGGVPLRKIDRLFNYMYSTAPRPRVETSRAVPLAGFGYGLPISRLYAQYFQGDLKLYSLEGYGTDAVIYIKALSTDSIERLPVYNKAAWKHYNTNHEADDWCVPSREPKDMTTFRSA
UniProt O15530: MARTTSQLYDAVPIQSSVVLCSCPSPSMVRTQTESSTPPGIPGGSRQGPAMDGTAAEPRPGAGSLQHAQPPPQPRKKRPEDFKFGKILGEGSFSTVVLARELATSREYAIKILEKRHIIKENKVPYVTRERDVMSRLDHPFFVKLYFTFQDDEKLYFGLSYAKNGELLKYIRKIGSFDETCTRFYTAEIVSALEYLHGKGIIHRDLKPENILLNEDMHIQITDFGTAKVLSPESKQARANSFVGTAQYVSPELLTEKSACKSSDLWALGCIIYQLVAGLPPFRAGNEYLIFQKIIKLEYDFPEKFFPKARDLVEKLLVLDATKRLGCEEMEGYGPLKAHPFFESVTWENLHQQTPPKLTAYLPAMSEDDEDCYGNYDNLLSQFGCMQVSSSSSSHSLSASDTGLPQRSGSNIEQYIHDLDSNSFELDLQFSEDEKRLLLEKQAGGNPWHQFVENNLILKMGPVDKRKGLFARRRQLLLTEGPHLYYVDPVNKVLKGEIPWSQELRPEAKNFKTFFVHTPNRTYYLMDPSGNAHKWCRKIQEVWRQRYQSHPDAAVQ
UniProt Q9UBF8: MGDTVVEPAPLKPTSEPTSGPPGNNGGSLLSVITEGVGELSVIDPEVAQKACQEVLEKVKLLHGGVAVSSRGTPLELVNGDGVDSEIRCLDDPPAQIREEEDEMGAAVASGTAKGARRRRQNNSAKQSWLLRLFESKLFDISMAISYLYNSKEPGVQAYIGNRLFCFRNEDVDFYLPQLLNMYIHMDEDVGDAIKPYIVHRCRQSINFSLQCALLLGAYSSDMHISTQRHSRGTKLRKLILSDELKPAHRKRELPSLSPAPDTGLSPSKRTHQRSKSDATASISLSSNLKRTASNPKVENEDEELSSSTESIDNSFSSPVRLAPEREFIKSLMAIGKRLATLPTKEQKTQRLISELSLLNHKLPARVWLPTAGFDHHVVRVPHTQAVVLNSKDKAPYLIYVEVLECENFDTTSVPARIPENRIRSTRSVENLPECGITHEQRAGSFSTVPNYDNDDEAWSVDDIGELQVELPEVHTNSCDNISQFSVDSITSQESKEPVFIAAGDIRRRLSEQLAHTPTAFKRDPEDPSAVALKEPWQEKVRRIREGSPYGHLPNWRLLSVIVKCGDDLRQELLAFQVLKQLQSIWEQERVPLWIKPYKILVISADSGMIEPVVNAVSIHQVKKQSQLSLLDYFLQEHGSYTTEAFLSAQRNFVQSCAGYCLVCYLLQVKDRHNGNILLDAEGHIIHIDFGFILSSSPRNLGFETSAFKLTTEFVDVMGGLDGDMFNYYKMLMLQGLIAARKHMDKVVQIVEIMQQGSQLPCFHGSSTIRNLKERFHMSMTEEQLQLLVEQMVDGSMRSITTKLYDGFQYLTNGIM
UniProt P53350, whole entry: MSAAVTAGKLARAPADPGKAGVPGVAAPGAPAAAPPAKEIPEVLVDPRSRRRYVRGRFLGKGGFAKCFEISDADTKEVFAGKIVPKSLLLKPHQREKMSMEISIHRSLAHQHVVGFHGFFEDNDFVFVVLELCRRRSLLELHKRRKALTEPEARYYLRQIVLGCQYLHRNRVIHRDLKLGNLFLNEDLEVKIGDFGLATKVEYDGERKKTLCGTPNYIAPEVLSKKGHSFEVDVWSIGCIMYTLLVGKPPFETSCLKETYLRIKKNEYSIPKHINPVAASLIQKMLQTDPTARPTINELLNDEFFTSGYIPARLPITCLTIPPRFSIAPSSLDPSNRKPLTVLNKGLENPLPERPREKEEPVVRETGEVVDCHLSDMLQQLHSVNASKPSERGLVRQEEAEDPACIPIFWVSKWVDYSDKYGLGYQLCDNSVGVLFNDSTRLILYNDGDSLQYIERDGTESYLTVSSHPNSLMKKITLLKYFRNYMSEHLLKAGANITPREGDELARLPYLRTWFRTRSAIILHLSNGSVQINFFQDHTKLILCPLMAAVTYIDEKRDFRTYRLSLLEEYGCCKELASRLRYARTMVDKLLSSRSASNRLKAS
UniProt Q13131: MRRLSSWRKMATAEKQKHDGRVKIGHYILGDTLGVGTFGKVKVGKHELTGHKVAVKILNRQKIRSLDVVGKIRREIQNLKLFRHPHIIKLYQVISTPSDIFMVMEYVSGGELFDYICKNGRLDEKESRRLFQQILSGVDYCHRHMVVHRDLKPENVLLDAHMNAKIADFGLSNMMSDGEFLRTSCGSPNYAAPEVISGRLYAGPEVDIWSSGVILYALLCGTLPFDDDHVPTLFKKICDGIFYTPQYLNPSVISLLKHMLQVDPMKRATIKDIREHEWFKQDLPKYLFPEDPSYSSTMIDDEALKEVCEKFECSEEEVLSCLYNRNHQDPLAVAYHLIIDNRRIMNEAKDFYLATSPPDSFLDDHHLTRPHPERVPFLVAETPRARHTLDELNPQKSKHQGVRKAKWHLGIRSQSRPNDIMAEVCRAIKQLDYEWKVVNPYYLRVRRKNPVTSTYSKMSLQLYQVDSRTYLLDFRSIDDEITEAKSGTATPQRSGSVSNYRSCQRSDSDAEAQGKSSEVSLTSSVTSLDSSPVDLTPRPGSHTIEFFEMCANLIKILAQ

Key:
Assay in all cases: number of time points (of 5) at which kinase-Nluc abundance scored as decreased, DMSO-normalised (count); higher = more persistent destabilization
Details in all cases: K562; 2-18 h
NTRK3 = NTRK3 (UniProt Q16288)
PAK4 = PAK4 (UniProt O96013)
PBK = PBK (UniProt Q96KB5)
PDGFRB = PDGFRB (UniProt P09619)
PDK1 = PDK1 (UniProt Q15118)
PDPK1 = PDPK1 (UniProt O15530)
PIK4CA = PIK4CA (UniProt P42356)
PIK4CB = PIK4CB (UniProt Q9UBF8)
PLK1 = PLK1 (UniProt P53350)
PRKAA1 = PRKAA1 (UniProt Q13131)

SMILES	number of time points (NTRK3)	number of time points (PAK4)	number of time points (PBK)	number of time points (PDGFRB)	number of time points (PDK1)	number of time points (PDPK1)	number of time points (PIK4CA)	number of time points (PIK4CB)	number of time points (PLK1)	number of time points (PRKAA1)
CC(C)c1cc(/C=C(\C#N)C(=O)NCCCc2ccccc2)cc(C(C)C)c1O (10 µM)	0	0	0	0	0	0	0	0	0	0
C[C@@H]1O[C@@H](O[C@@H]2[C@@H](O)[C@H](OCCc3ccc(O)c(O)c3)O[C@H](CO)[C@H]2OC(=O)/C=C/c2ccc(O)c(O)c2)[C@H](O)[C@H](O)[C@H]1O [Verbascoside] (10 µM)	0	0	0	0	0	0	0	0	0	0
CC(C)CCNC(=O)c1ccc2c(c1)nc(Nc1n[nH]c3ccc(-c4ccccc4OC(F)(F)F)cc13)n2C1CCC(O)CC1 (stereo not drawn) [IRAK inhibitor 4 (trans)] (10 µM)	0	0	0	0	0	0	0	0	0	0
Cc1ccc(-c2csc3ncnc(SCCC(=O)O)c23)cc1 (10 µM)	0	0	0	0	0	0	0	0	0	0
Nc1ncnc2c1c(COc1cccc(Cl)c1)nn2C1CCOCC1 (10 µM)	0	0	0	0	0	0	0	0	0	0
C[C@H](Nc1ncnc2nc[nH]c12)c1cc2cccc(Cl)c2c(=O)n1-c1ccccc1 [Duvelisib] (10 µM)	0	0	0	0	0	0	0	0	0	0
NC(=S)n1[nH]c(-c2ccc([N+](=O)[O-])cc2)c(N=Nc2cccc(Cl)c2)c1=O (2.5 µM)	0	0	0	0	0	0	0	0	0	0
CS(=O)(=O)c1ccc(-c2cnc(N)c(-c3ccc(C(F)(F)F)nc3)c2)cc1 (10 µM)	0	0	0	0	0	0	0	0	0	0
O=C(NCc1cccc(O)c1)Nc1nc(-c2ccncc2)cs1 (10 µM)	0	0	0	0	0	0	0	0	0	0
O=C(O)c1cc(N(Cc2ccccc2O)Cc2ccccc2O)ccc1O [Lavendustin B] (10 µM)	0	0	0	0	0	0	0	0	0	0
CCOC(=O)N1C/C(=C/c2ccccc2F)C(=O)/C(=C\c2ccccc2F)C1 (2.5 µM)	0	0	0	0	0	0	0	0	0	0
Cn1ncc2cc(-c3cnc(N)c(Cl)c3N3CCC4(CCNC4=O)CC3)ccc21 (10 µM)	0	0	0	0	0	0	0	0	0	0
O=[N+]([O-])c1ccc2c(c1)S(=O)(=O)C=C2 [Stattic] (2.5 µM)	0	0	0	0	0	0	0	0	0	0
COc1cc2ncnc(Nc3ccc(F)c(Cl)c3)c2cc1NC(=O)/C=C/CN1CCCCC1 [Dacomitinib] (10 µM)	0	0	0	0	0	0	0	0	0	0
Nc1nc(N)c2nc(-c3cccc(O)c3)cnc2n1 (10 µM)	0	0	0	0	0	0	0	0	0	0
COc1ccc2cc(-c3nc(-c4ccc([S+](C)[O-])cc4)[nH]c3-c3ccncc3)ccc2c1 (stereo not given) [Tie2 kinase inhibitor 1] (2.5 µM)	0	0	0	0	0	0	0	0	0	0
C=CC(=O)N1C[C@H](COc2nc(Nc3cnn(C)c3)nc3[nH]cc(Cl)c23)[C@@H](OC)C1 (2.5 µM)	0	0	0	0	0	0	0	0	0	0
O[C@@H]1CO[C@H]2[C@@H]1OC[C@H]2Oc1nc2nc(-c3ccc(-c4ccccc4)cc3)c(Cl)cc2[nH]1 (10 µM)	1	0	0	0	0	0	0	0	0	0
NC(=O)N1CCC(CC(=O)N2CCC([C@H]3c4ncc(Br)cc4CCc4cc(Cl)cc(Br)c43)CC2)CC1 [Lonafarnib] (2.5 µM)	0	0	0	0	0	0	0	0	0	0

Quoted at random: two records from the list.
SMILES	number of time points (NTRK3)	number of time points (PAK4)	number of time points (PBK)	number of time points (PDGFRB)	number of time points (PDK1)	number of time points (PDPK1)	number of time points (PIK4CA)	number of time points (PIK4CB)	number of time points (PLK1)	number of time points (PRKAA1)
Nc1ncnc2c1c(COc1cccc(Cl)c1)nn2C1CCOCC1 (10 µM)	0	0	0	0	0	0	0	0	0	0
CC(C)CCNC(=O)c1ccc2c(c1)nc(Nc1n[nH]c3ccc(-c4ccccc4OC(F)(F)F)cc13)n2C1CCC(O)CC1 (stereo not drawn) [IRAK inhibitor 4 (trans)] (10 µM)	0	0	0	0	0	0	0	0	0	0
